No constants are given. Whether binding was seen depends on the method and setting. Binding seen in cells or lysates may run through a third protein. Some binding calls cover weakened binding; strength is not graded here.
How the values were obtained:
[1] = target: GST-Grb2 (Growth factor receptor-bound protein 2) (UniProt P62993); test: pull-down; 10 μl GST-Grb2 beads incubated overnight at 4 °C with 50 μl RIPA/PBS lysate of virulent or attenuated Theileria-infected macrophages (untreated or treated with the control penetrating peptide PEN); blot with anti-p85 or anti-TGFβ RII; only the target purified
[2] = target: GST-Grb2 (Growth factor receptor-bound protein 2) (UniProt P62993); test: pull-down; as a1, but lysate of virulent macrophages treated with the Grb2-SH3 competitive peptide peptidimer-c (1 μM, 1 h, 37 °C) before lysis; only the target purified
[3] = target: GST-Grb2 (Growth factor receptor-bound protein 2) (UniProt P62993); test: condition: only virulent macrophages treated with 1 μM peptidimer-c; pull-down; as a1, but lysate of virulent macrophages treated with the Grb2-SH3 competitive peptide peptidimer-c (1 μM, 1 h, 37 °C) before lysis; only the target purified

The chains behind the UniProt entries cited, without tags or fusion partners.
UniProt P62993: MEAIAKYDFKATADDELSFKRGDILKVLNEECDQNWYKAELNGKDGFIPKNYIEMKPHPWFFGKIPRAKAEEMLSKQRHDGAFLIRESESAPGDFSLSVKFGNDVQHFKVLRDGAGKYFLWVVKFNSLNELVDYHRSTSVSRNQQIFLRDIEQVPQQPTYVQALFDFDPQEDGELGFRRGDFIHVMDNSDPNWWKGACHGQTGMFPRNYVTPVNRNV
UniProt P23727: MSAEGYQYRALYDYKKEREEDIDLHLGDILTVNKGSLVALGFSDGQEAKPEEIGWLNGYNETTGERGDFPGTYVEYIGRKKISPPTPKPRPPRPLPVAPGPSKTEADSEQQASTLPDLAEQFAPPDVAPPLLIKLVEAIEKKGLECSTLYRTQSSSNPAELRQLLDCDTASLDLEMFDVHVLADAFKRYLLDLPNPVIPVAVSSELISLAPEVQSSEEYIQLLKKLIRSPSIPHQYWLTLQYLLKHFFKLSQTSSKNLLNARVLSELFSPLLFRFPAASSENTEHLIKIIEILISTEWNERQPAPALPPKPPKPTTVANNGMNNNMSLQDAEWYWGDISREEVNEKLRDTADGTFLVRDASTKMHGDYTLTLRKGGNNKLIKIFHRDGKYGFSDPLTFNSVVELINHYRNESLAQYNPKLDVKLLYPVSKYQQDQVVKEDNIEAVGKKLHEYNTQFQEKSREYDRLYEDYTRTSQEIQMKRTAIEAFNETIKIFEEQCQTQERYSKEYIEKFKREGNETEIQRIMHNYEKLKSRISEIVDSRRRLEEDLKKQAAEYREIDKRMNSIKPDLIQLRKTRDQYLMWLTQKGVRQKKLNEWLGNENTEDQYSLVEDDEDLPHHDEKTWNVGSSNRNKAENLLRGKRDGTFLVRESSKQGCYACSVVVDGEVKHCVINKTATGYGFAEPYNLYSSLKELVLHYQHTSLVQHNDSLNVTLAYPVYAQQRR

“p85 regulatory subunit of PI3-K (from UniProt P23727 1-724)” was tested, and the binding [1] was “binds”, the binding [2] was “binds” and the binding [3] was “no binding”.

Source: publication PMC4625156
